Literature values in patent US20240180893A1, “METHODS OF TREATMENT OF BREAST CANCER” (AstraZeneca AB, priority 2022, published 2024).
For at least one compound, name, drawing or mass did not settle the structure.

Test system: ER+ breast cancer
Details: within 2 years of beginning treatment; PALOMA-2 trial; cited from earlier work

In the case of `CC(=O)c1c(C)c2cnc(Nc3ccc(N4CCNCC4)cn3)nc2n(C2CCCC2)c1=O` [palbociclib], the “Enrolled patients that developed resistance to the CDK4/6 inhibitor” value is listed as “over 30%”.
